Assay: Plastic crazing test
Conditions: ASTM F 484, MIL-P-83310 polycarbonate; for Plastic crazing, Results: MIL-PRF-25690 acrylic

SMILES | Plastic crazing on polycarbonate | Plastic crazing, Results | Plastic crazing, Results (listed as Triethylene glycol (99% pure))
OCCOCCOCCO [Triethylene glycol] | acrylic; no | slight crazing of acrylic plastic | Crazed
OCC(O)CO [Glycerol] | – | No crazing | –
CC(O)CO (centres unmarked) [Propylene glycol, reference compound] | – | Slight | –
